Consider one substance from paper doi:10.1101/330001.

Amino acid sequences for entries named in this document (tags omitted).
UniProt Q8VD65: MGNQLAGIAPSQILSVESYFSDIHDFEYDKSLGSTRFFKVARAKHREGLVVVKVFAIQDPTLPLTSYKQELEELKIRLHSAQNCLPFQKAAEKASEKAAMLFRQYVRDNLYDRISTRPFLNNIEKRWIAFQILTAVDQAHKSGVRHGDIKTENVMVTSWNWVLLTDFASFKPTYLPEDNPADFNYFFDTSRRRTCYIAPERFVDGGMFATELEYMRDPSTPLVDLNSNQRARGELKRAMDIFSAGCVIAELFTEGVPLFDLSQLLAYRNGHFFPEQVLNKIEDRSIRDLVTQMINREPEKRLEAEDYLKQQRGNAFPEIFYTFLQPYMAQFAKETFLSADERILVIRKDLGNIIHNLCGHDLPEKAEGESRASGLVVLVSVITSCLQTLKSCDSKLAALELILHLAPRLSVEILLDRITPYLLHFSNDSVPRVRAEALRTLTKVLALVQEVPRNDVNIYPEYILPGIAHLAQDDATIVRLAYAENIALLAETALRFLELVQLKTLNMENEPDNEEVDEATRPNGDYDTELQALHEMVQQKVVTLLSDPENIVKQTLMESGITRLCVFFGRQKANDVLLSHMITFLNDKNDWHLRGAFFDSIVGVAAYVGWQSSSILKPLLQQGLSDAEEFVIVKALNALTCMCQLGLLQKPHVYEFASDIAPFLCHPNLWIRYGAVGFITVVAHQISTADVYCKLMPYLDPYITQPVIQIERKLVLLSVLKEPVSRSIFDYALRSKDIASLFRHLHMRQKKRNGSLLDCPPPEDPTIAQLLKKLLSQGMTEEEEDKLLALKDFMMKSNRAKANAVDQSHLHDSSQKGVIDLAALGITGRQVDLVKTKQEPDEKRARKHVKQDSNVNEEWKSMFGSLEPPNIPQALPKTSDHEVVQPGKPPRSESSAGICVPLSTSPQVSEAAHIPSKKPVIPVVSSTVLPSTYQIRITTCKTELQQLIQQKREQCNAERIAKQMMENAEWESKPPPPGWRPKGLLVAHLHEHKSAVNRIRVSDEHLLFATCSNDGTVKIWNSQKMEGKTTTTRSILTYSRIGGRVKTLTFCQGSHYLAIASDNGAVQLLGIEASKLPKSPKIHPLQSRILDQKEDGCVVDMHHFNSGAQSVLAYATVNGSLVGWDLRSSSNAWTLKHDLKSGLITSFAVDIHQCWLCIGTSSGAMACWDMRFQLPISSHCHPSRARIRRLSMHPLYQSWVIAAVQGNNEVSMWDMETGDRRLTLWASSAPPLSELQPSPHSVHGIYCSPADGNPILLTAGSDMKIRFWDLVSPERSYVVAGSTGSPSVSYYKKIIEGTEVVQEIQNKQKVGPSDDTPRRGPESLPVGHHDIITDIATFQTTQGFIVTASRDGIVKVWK
UniProt O88597: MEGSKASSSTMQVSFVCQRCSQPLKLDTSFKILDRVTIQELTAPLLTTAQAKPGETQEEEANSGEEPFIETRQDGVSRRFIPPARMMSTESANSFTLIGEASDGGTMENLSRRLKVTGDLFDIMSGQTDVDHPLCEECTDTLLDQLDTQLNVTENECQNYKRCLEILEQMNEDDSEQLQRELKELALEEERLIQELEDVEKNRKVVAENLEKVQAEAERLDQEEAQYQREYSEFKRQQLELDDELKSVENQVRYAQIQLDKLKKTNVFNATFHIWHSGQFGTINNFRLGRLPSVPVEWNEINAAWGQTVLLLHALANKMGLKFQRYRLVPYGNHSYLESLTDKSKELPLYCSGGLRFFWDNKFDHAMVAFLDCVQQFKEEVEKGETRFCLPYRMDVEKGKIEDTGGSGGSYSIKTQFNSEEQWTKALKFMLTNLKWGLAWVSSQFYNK

Results are given in words; binding and its absence hold for the method and conditions named. In cells and extracts the contact can be indirect. Some binding calls cover weakened binding; strength is not graded here.

The target of the assay is Vps15 (mouse (endogenous in ST-Q7 and ST-Q111 cells)) (UniProt Q8VD65). Description: proximity ligation.

Turning to Beclin 1 (from UniProt O88597 1-448), the binding result is recorded as “binds”.
